Source: article PMC6571673, “Cytostatic and Cytotoxic Natural Products against Cancer Cell Models” (Molecules, 2019)

Tested on: SUP-B15
Experiment: CTG viability assay (CellTiter-Glo, 72 h)
Format: cell-based, human
Settings: therapeutic index, EC50 PBMC / EC50 SUP-B15
Method: All human cell lines were incubated at 37 °C in a 5% CO2 atmosphere and maintained under sterile conditions. Cells were tested for Mycoplasma (Lonza, Alpharetta, GA, USA) using the manufacturer’s conditions prior to experiments. Cell lines were purchased from American Type Culture Collection (ATCC, Manassas, VA, USA) or Leibniz-Institute Deutsche Sammlung von Mikroorganismen und Zellkulturen GmbH (DSMZ, Braunschweig, Germany) and cultured without antibiotics unless stated. Leukemia cells were cultured in RPMI and supplemented with 10% fetal bovine serum (FBS, Hyclone, Logan, UT, USA). SUP-B15, and KOPN-8 lines were cultured in RPMI supplemented with 10% FBS (Hyclone), 1% GlutaMAX™, 1% Pen/Step, and 0.1% β-mercaptoethanol. BJ cells were cultured in EMEM media supplemented with 10% FBS (Hyclone). Breast cancer cells (MDA-MB-231 & SUM149) were cultured in DMEM and Ham’s F12 respectively, supplemented with 10% FBS, 1% GlutaMAX™, 1% Pen/Step, and 2 µM cortisol/1 µg/mL insulin for SUM149. Both cells were grown to 80% confluence densities as recommended by ATCC. PBMCs were supplemented with concanavalin-A (5 μg/mL) and IL-2 (50 U/ml). To test general cytotoxicity, the following cell numbers were used for 384 well plates: KOPN-8 (ACC 552, infant human B cell precursor acute lymphoblastic leukemia with MLL-MLLt1/ENL fusion, 1000 cells/well), SUP-B15 (ACC389, human B cell precursor acute lymphoblastic leukemia of pediatric second relapse carrying the ALL-variant (m-bcr) of BCR-ABL1 fusion gene (e1-a2), 1600 cells/well), NALM-06 (DSMZ ACC128, non-T/non-B ALL at relapse with P15INK4B and P16INK4A deletions, 1200 cells/well), UoC-B1 (pediatric BCP-ALL at second relapse with TCF3/E2A-HFL fusion, 1000 cells/well), BJ (CRL-2522, normal human foreskin fibroblast cells, 400 cells/well) and PBMCs (periphery blood monocyte cells from healthy donors, IBC#BDC046, 10,000 cells/well).
Cytotoxicity evaluation was performed using the CellTiter-Glo Luminescent Cell Viability Assay kit (G7570, Promega, Madison, WI, USA), according to the manufacturer’s instructions. Briefly, the cell concentrations used were experimentally determined to ensure logarithmic growth during the 72-h duration of the experiment, and avoid adverse effects on cell growth by DMSO exposure. 1 × 10^3–4.8 × 10^3 or 4 × 10^2–1.2 × 10^3 cells/well were seeded in 96 or 384-well white flat-bottomed plates (3610 or 8804BC, Corning, Corning, NY, USA) in 100 µL or 30 µL/well, respectively. The plates were incubated at 37 °C in 5% CO2 for 24 h before drugging. Test compounds (10 mM in DMSO) in nine 3-fold serial dilutions were dispensed via pintool (Biomek liquid handler, Beckman, Indianapolis, USA) to assay plates. The final concentration of DMSO was 0.3% (v/v) in each well. The positive controls included staurosporine (10 μM), and gambogic acid (10 μM). The plates were incubated for 72 h at 37 °C in 5% CO2, then quenched with CellTiter-Glo® (Promega, Madison, WI, USA, 50 µL/96 or 30 µL/384), centrifuged at 1000 rpm for 1 min and incubated at RT for 20 min. Luminescence was recorded with a plate reader (Envision, Perkin Elmer, Waltham, MA, USA). The mean luminescence of each experimental treatment group was normalized as a percentage of the mean intensity of untreated controls. EC50 values were calculated by Pipeline Pilot software (Accelrys, Enterprise Platform, San Diego, CA, USA).

Compound	TI (PBMC/SUP-B15)
COc1ccc2c(c[n+](C)c3c4cc5c(cc4ccc23)OCO5)c1OC [Compound 8, chelerythrine]	2.8
COC(=O)C[C@](O)(CCCC(C)(C)O)C(=O)O[C@@H]1C(OC)=C[C@]23CCCN2CCc2cc4c(cc2[C@H]13)OCO4 [Compound 10, homoharringtonine, reference compound]	140
COc1ccc(CC2c3cc(O)c(OC)cc3CCN2C)cc1O (stereo not drawn) [Compound 4]	>2.25
CC(C)CC[C@@H](O)[C@](C)(O)[C@H]1CC[C@@]2(O)C3=CC(=O)[C@]4(O)C[C@@H](O)[C@@H](O)C[C@]4(C)[C@H]3[C@H](O)C[C@]12C [Compound 13, muristerone A]	>4.5
COc1cc2c(cc1O)[C@H]1Cc3ccc(OC)c(O)c3CN1CC2 [Compound 5]	>1.48
C/C=C1\C(=O)C[C@@]2(O)[C@@H]3CCC4=CC(=O)CC[C@]4(C)[C@H]3CC[C@]12C [Compound 14]	>2.5
CC(C)(O)CC[C@@H](O)[C@](C)(O)[C@H]1CC[C@@]2(O)C3=CC(=O)[C@@H]4C[C@@H](O)[C@@H](O)C[C@]4(C)[C@H]3CC[C@]12C [Compound 11]	>1.48
COC1=C[C@]23CCCN2CCc2cc4c(cc2[C@@H]3[C@@H]1O)OCO4 [Compound 9, cephalotaxine]	>7.7
CCC1CN2CCc3cc(OC)c(OC)cc3C2CC1CC1NCCc2cc(O)c(OC)cc21 (stereo not drawn) [Compound 6]	>4.3
C[C@H]([C@H](O)CCC(C)(C)O)[C@H]1CC[C@@]2(O)C3=CC(=O)[C@@H]4C[C@@H](O)[C@@H](O)C[C@]4(C)[C@H]3CC[C@]12C [Compound 12, ecdysone]	>2.15

Tested on: MDA-MB-231
Experiment: Co-localization of probe with organelle trackers, live cell imaging
Format: cell-based, human
Settings: live MDA-MB-231 cells, 1 µM
Text: It is important to determine the intracellular accumulation of compound 9 as this may aid in identifying its intracellular interactions. To facilitate these experiments, a series of orthogonal fluorescent organelle markers were used for co-localization studies. The organelle marker set included indicators for the lysosome (Lysotracker Red), the mitochondria (MitoTracker Deep Red), and the endoplasmic reticulum (ER tracker Blue/White). Where applicable, nuclei were stained with Hoechst (Blue). All these markers were compatible with BODIPY-FL (green) to allow for flexible combinations. […] First, to evaluate the accumulation of compound 9a after 30 min treatment at 1 µM, washout experiments were conducted as shown in Figure 7A in the presence of Hoechst nuclear stain. Distinct green specks were observed near the nucleus of the cell.
Co-localization studies were conducted in 8-well chambered coverslips (ibidi GmbH µ-slide # 80826) for MDA-MB-231. Coverslips were first coated with 0.1% Gelatin for 30 min for better cell adherence. Cells were then plated in phenol red free medium at a density of 4 × 10^4 cells per well and incubated at 37 °C overnight. […]

Compound	co-localization with lysosomes (Lysotracker Red)	co-localization with mitochondria (MitoTracker Deep Red)
COC1=CC23CCCN2CCc2cc4c(cc2C3C1OC(=O)CCC1=[N+]2C(=Cc3c(C)cc(C)n3[B-]2(F)F)C=C1)OCO4 (stereo not drawn) [9a]	co-localizes with lysosomes	no co-localization was detected
